PubChem BioAssay AID504808 | Drosophila RNAi Screening Center – 2011
The screen tested about 21,000 reagents; this is a random part of those that have a named target and a result. Over the whole deposit, 18 (0.084%) got an active call. 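Raw counts without plate normalisation, one of two replicates; the ratio scores behind the calls were not deposited.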 Reagent sequences are not shown. Not stated in the record: the amount of reagent, the time to read-out.

- Assay: 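Chromatin factors that keep E2F targets switched off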 (primary screen)
- System: Drosophila S2 cells
- Knock-down reagent: long dsRNA against Drosophila genes
- Measurement: 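Firefly luciferase driven by E2F sites, normalised to Renilla luciferase on the same minimal promoter, measured by plate reader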
- Scale: E2F firefly: higher = more E2F reporter activity; Renilla normaliser: higher = more normaliser reporter signal
- Hit rule: 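a knock-down counted as active when the firefly/Renilla E2F signal rose above 50%, a threshold chosen arbitrarily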

Silencing of CG34292 [DRSC13807] gave: E2F firefly, rep 1 = 79587; Renilla normaliser, rep 1 = 2472; inactive.
After knock-down of Lcp1 [DRSC07455], the record shows E2F firefly, rep 1 = 1.49e5; Renilla normaliser, rep 1 = 4741; inactive.
For svr [DRSC17293], the entry reads E2F firefly, rep 1 = 67699; Renilla normaliser, rep 1 = 2594; inactive.
Silencing of svr [DRSC18841] came out at: E2F firefly, rep 1 = 51236; Renilla normaliser, rep 1 = 3765; inactive.
CG3348 [DRSC15480] gave E2F firefly, rep 1 = 1.26e5; Renilla normaliser, rep 1 = 7319; inactive.
Silencing of CG5070 [DRSC19932] gave: E2F firefly, rep 1 = 1.49e5; Renilla normaliser, rep 1 = 7141; inactive.
TotZ [DRSC13450] gave E2F firefly, rep 1 = 80798; Renilla normaliser, rep 1 = 2943; inactive.
For SIFa [DRSC04480] the deposit lists E2F firefly, rep 1 = 1.12e5; Renilla normaliser, rep 1 = 4609; inactive.
CG2186 [DRSC19838] showed E2F firefly, rep 1 = 7738; Renilla normaliser, rep 1 = 692; inactive.
Against CG12744 [DRSC06164], the entry reads E2F firefly, rep 1 = 2867; Renilla normaliser, rep 1 = 223; inactive.
After knock-down of Mst33A [DRSC03371], the screen gave E2F firefly, rep 1 = 1.46e5; Renilla normaliser, rep 1 = 5218; inactive.
Against CG13075 [DRSC09958] the deposit lists E2F firefly, rep 1 = 1.52e5; Renilla normaliser, rep 1 = 7836; inactive.
After knock-down of Inx6 [DRSC20579], the record shows E2F firefly, rep 1 = 1.24e5; Renilla normaliser, rep 1 = 3240; inactive.
Against ND-23 [DRSC15526], the values are E2F firefly, rep 1 = 70125; Renilla normaliser, rep 1 = 3116; inactive.
With knock-down of CG34161 [DRSC01132] the results were E2F firefly, rep 1 = 1.60e5; Renilla normaliser, rep 1 = 7483; inactive.
CG42286 (retired record) [DRSC14357] scored E2F firefly, rep 1 = 1.18e5; Renilla normaliser, rep 1 = 6335; inactive.
After knock-down of Or56a [DRSC07495], the record shows E2F firefly, rep 1 = 1.38e5; Renilla normaliser, rep 1 = 5194; inactive.
Against CG13931 [DRSC08400], the entry reads E2F firefly, rep 1 = 98007; Renilla normaliser, rep 1 = 4041; inactive.
With knock-down of lov [DRSC04279] the results were E2F firefly, rep 1 = 1.21e5; Renilla normaliser, rep 1 = 4717; inactive.
Depletion of lov [DRSC04665] gave: E2F firefly, rep 1 = 1.14e5; Renilla normaliser, rep 1 = 4917; inactive.
Dgp-1 [DRSC07400] showed E2F firefly, rep 1 = 1.51e5; Renilla normaliser, rep 1 = 4905; inactive.

Single entries from the entries so far.
Entry for CG2186 [DRSC19838] in “Renilla normaliser, rep 1”: 692
Result of TotZ [DRSC13450] under “Renilla normaliser, rep 1”: 2943
Entry for CG34161 [DRSC01132] in “Renilla normaliser, rep 1”: 7483
Under “Outcome”, SIFa [DRSC04480] has inactive
For “E2F firefly, rep 1”, Inx6 [DRSC20579] reads 1.24e5

The list goes on.
Depletion of NKCC [DRSC12140] resulted in: E2F firefly, rep 1 = 77282; Renilla normaliser, rep 1 = 3103; inactive.
Against NKCC [DRSC12311], the entry reads E2F firefly, rep 1 = 1.43e5; Renilla normaliser, rep 1 = 7186; inactive.
Against CG5708 [DRSC02881], the entry reads E2F firefly, rep 1 = 1.45e5; Renilla normaliser, rep 1 = 4835; inactive.
After knock-down of Pdzd8 [DRSC19355], the record shows E2F firefly, rep 1 = 1.20e5; Renilla normaliser, rep 1 = 6615; inactive.
For KdelR [DRSC03353] the deposit lists E2F firefly, rep 1 = 80912; Renilla normaliser, rep 1 = 3415; inactive.
Cyp4d8 [DRSC11131] showed E2F firefly, rep 1 = 68673; Renilla normaliser, rep 1 = 3588; inactive.
After knock-down of mu2 [DRSC08726], the screen gave E2F firefly, rep 1 = 67893; Renilla normaliser, rep 1 = 2903; inactive.
Depletion of CG6664 [DRSC10690] resulted in: E2F firefly, rep 1 = 72078; Renilla normaliser, rep 1 = 3955; inactive.
With knock-down of CG31639 [DRSC00910], the record shows E2F firefly, rep 1 = 1.29e5; Renilla normaliser, rep 1 = 6129; inactive.
For CG15263 [DRSC01974] the deposit lists E2F firefly, rep 1 = 1.04e5; Renilla normaliser, rep 1 = 4705; inactive.
With knock-down of Utx [DRSC02872], the record shows E2F firefly, rep 1 = 1.66e5; Renilla normaliser, rep 1 = 5043; inactive.
Silencing of bbg [DRSC11077] gave: E2F firefly, rep 1 = 1.93e5; Renilla normaliser, rep 1 = 8966; inactive.
Against bbg [DRSC11079], the entry reads E2F firefly, rep 1 = 1.69e5; Renilla normaliser, rep 1 = 7249; inactive.
For Osi22 [DRSC16442] the deposit lists E2F firefly, rep 1 = 1.20e5; Renilla normaliser, rep 1 = 6184; inactive.
For Pfrx [DRSC18856] the deposit lists E2F firefly, rep 1 = 1.42e5; Renilla normaliser, rep 1 = 7217; inactive.
Pfrx [DRSC19315] showed E2F firefly, rep 1 = 88915; Renilla normaliser, rep 1 = 3332; inactive.
